Results from patent publication US20070065439A1.
No constants are given. Whether binding was seen depends on the method and setting.

How the values were obtained:
[1] = molecular target: IL-1β mutated at K103; assay: binding to site-directed IL-1β mutant; X = abrogation of binding
[2] = molecular target: IL-1β mutated at E105; assay: as above

binding [1]: no binding
binding [2]: no binding
B1: 5.36.1 (antibody, human IgG4, V domains shown)
VH: QVQLQQSGPGLVKPSQTLSLTCAISGDSVSSNSAAWNWIRQSPSRGLEWLGRTYYRSKWYNDYAVSVKSRITINPDTSKNQFSLQLNSVTPEDTAVYYCAREEQQLVRYYYYYGMDVWGQGTTVTVS
VL: DIVMTQTPLSLSVTPGQPASISCKSSQSLLHSDGRTYLYWYLQRPGQPPQLLIYEASYRFSGVPDRFSGSGSGTDFTLKISRVEAEDVGIYYCMQSIQLPRTFGQGTRLEIK
